# Data published in patent US9487479B2, “Small molecule inhibitors of N-terminus activation of the androgen receptor” (The University of British Columbia, priority 2008, dated 2016).
# At least one compound was matched to its structure with a doubt left.
# Test system: PSA mRNA
# Test: Androgen-induced PSA mRNA levels in LNCaP cells (qRT-PCR)
# Format: cell-based, human
# Conditions: 10 μM, 1 hour pretreatment, R1881 1 nM, 16 hours
# Protocol: Levels of PSA mRNA were measured by quantitative real-time (qRT)-PCR and normalized to levels of GAPDH mRNA (housekeeping gene). White bar: no R1881. Black bars: R1881 (1 nM). MNE: mean normalized expression. DMSO (no R1881) was arbitrarily set at 1.0 for each individual experiment. Bars represent the mean±SE from 3 separate experiments using triplicate technical samples from each experiment.
# PSA is an androgen-regulated gene containing several well-characterized androgen response elements (AREs) in the enhancer and promoter regions. Levels of PSA mRNA are induced by androgen by a mechanism dependent androgen receptor. To test if sintokamides would also block endogenous gene expression induced by androgen, levels of PSA mRNA were measured in response to the synthetic androgen R1881.
smiles,measurement,value
"CC(O)(CS(=O)(=O)c1ccc(F)cc1)C(=O)Nc1ccc(C#N)c(C(F)(F)F)c1 (stereo not shown) [bicalutamide, reference compound]",blocking of R1881-induced PSA mRNA levels,blocked
